Laboratory results reported in patent US10034913B2, “Anti-angiogenic peptides and uses thereof” (Health Research, Inc., priority 2011, dated 2018).
Some results were stated once for a whole list of compounds, not compound by compound. Where no end group is shown, it is not given here.

Test system: HUVEC
Test: Matrigel endothelial tube formation assay
Format: cell-based, human
Conditions: across multiple sets of experiments, FIG. 10
Source text: The 3-D model of human PSA, the amino acid sequence of the initial five candidate peptides, and their color-coded location on the exterior of the PSA protein molecule in aqueous solution, are presented in FIG. 8. Five PSA-mimetic peptides with >90% purity were acquired from GeneScript Corporation, Piscataway, N.J., and tested for anti-angiogenic activity against HUVECs in the Matrigel tube formation assay with intact PSA as the control (FIGS. 9 &10). […] The images are processed under the Analyze 7.0 and “Angioquant” software packages, for imaging and quantification. The total length of tubular structures in the image is determined, and averaged over the replicate cultures. This method of quantification allows for accurate, unbiased measurement of tube lengths. […]
The experimental endpoint, measured by digital image analysis, is the total area of the image comprised of endothelial cells (tubes). […]
FIG. 13 is a graphical representation of data showing anti-angiogenic activity of f-PSA, PSA-P3L, and PSA-P3C by inhibiting tube formation by HUVEC in a Matrigel assay. […] Live cell images (4× magnification) were taken using Nikon Eclipse TE300 inverted microscope system and analyzed using Spot Advance software program. […] The images were processed further using Analyze 7.0 (AnalyzeDirect, Inc., Overland Park, Kans.) and Angioquant v1.33 to obtain the average tube length for each image. […]

KNRFLRPGDDSSH [Peptide #1, amino acids 107-119 of PSA]
inhibition of the angiogenic activity of HUVEC relative to native PSA: 35-40%
